Test results reported in PubChem BioAssay AID1688 (National Center for Advancing Translational Sciences (NCATS), 2009).
The whole screen tested about 220,000 compounds, of which about 2,400 (1.1%) were called active. The shares of active, inactive and inconclusive entries below differ from those in the screen. Calls come from the whole dose curve; as a rule, active = well fitted inhibition curve with a large enough effect; inconclusive = small, poorly fitted or top-dose-only effect, or effect the other way; inactive = no such curve, though single readings can be large or run the other way. A potency beside an inconclusive call is a rough fit, not a confirmed value.

assay: qHTS Multiplex Assay to Identify Dual Action Probes in a Cell Model of Huntington: Aggregate Formation (GFP); settings: PC12 HttQ103-GFP aggregates, Acumen cytometry, 40 h; activity change, negative = inhibition: at 46.1 µM (top of the series) unless noted; note: nearly all actives have a fitted effect of over 60% in size
Procedure, shortened: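 Using laser scanning cytometry, GFP-positive aggregates were counted after lysis of PC12 cells induced with 100 nM tebufenozide to express HTT exon 1 Q103–GFP. Compounds were tested in titration.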
% is set by controls: 0 for no effect and ±100 for the full control effect; potency is the fitted concentration of half-maximal effect.

| SMILES | Potency | activity change, negative = inhibition |
| --- | --- | --- |
| CN(C)S(=O)(=O)c1cccc(N=C2NN=C(c3ccccc3)CS2)c1 | inconclusive: 35.5 µM [inhibitor, single point] |  |
| N=c1sccn1CC(=O)NCCc1ccc(Cl)cc1Cl | inconclusive: 1.58 µM [inhibitor, partial curve] |  |
| CCOC(=O)N/N=C(C)/C=C/c1ccco1 | inactive |  |
| CC(C)c1ccc(-c2nnc(N)s2)cc1 | inactive |  |
| COc1ccc(N2CC(C)Cn3c2nc2c3c(=O)n(Cc3ccc(F)cc3)c(=O)n2C)c(OC)c1 (stereo not given) | inconclusive: 14.1 µM [inhibitor, single point] |  |
| CN(C)c1ccc(/C=C/c2cc[n+](C)cc2)cc1 | active: 2.51 µM |  |
| CCC/C(O)=C1\C(=O)CC(c2ccccc2)CC1=NCCc1c(C)[nH]c2ccc(C)cc12 (stereo not given) | inactive |  |
| Cc1ncsc1C(=O)N1N=C2/C(=C/c3ccccc3)CCCC2C1c1ccccc1 (stereo not given) | inconclusive: 35.5 µM [inhibitor, single point] |  |
| CCOc1ccc(NCc2nnc(SCc3ccc(Cl)cc3)n2-c2ccccc2)cc1 | inconclusive: 11.2 µM [inhibitor, partial curve] |  |
| c1csc(C(c2nnnn2C2CCCC2)N2CCCC3(CCCCC3)C2)c1 (stereo not given) | inconclusive: 15.8 µM [inhibitor, single point] |  |
| O=C1c2ccccc2-c2onc3ccc(NCc4ccco4)c1c23 |  | inactive: 3.56% [at 9.22 µM] |
| COc1cccc(N2CCN(C(=O)c3ccc4nc(N5CCCCC5)sc4c3)CC2)c1 | inconclusive: 17.8 µM [inhibitor, single point] |  |
| CCn1cc(C(=O)N2CCc3ccccc32)c(=O)c2cc(S(=O)(=O)N3CCCC3)ccc21 | inconclusive: 39.8 µM [activator, partial curve, poor fit] |  |
| CCNc1nc(NCC)nc(ON=C(C)C)n1 | inconclusive: 6.31 µM [activator, partial curve] |  |
| CN1CCN(C(c2cccnc2)c2ccc3cccnc3c2O)CC1 (stereo not given) | inconclusive: 5.62 µM [inhibitor, partial curve] |  |
| CN(C)C(=S)Nn1c(-c2ccccc2)nc2ccccc2c1=O | inactive |  |
| CCOc1ccccc1N1CC(O)=C(c2nc3ccccc3s2)C1=N | inconclusive: 35.5 µM [inhibitor, single point] |  |
| CCOC(=O)C1=NNC2(c3ccc(C)cc3)C(=O)N(c3ccc(Cl)cc3)C(=O)C12 (stereo not given) | inconclusive: 3.55 µM [activator, single point] |  |
| Cc1ccc2c(CSc3nnc4ccccn34)cc(=O)oc2c1C | inactive |  |
| O=C(c1ccco1)N1CCN(CC(O)COc2ccc3oc4ccccc4c3c2)CC1 (stereo not given) | inconclusive: 25.1 µM [inhibitor, single point] |  |

3 compounds out of the list, sorted by formula weight, rising:

| SMILES | Potency | activity change, negative = inhibition |
| --- | --- | --- |
| Cc1ccc2c(CSc3nnc4ccccn34)cc(=O)oc2c1C | inactive |  |
| c1csc(C(c2nnnn2C2CCCC2)N2CCCC3(CCCCC3)C2)c1 (stereo not given) | inconclusive: 15.8 µM [inhibitor, single point] |  |
| COc1cccc(N2CCN(C(=O)c3ccc4nc(N5CCCCC5)sc4c3)CC2)c1 | inconclusive: 17.8 µM [inhibitor, single point] |  |
